The other results are listed elsewhere or left out.
Compound: C[C@H](C1=CC=C(C=C1)C(=O)NC2=C3C=CNC3=NC=C2)N
Assay: log2 fold change, soluble protein after heating vs DMSO (PISA); higher = thermal stabilisation; K562 cells, 10 uM, 30 min; active = over 0.2 and 3.5 SD of the protein, either way, in both replicates (recomputed)
Outline: (§1)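 K562 cells at 2×10^6 cells/mL were given 10 μM compound for 30 min. Aliquots then went through 3 min of heating across 48°C-58°C, were pooled, and were extracted in PBS with 0.5% NP-40 at 4°C, and the supernatant after 21,000xg for 90 min was quantified by TMTpro 16plex LC-MS/MS with channel sums equalised. Thermal stability relative to control samples, from duplicates, is given as log2 fold change.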

Amino acid sequences for entries named in this document (tags omitted). A change or cut given only in a name is not applied to a line headed by its entry.
UniProt Q8NFI3: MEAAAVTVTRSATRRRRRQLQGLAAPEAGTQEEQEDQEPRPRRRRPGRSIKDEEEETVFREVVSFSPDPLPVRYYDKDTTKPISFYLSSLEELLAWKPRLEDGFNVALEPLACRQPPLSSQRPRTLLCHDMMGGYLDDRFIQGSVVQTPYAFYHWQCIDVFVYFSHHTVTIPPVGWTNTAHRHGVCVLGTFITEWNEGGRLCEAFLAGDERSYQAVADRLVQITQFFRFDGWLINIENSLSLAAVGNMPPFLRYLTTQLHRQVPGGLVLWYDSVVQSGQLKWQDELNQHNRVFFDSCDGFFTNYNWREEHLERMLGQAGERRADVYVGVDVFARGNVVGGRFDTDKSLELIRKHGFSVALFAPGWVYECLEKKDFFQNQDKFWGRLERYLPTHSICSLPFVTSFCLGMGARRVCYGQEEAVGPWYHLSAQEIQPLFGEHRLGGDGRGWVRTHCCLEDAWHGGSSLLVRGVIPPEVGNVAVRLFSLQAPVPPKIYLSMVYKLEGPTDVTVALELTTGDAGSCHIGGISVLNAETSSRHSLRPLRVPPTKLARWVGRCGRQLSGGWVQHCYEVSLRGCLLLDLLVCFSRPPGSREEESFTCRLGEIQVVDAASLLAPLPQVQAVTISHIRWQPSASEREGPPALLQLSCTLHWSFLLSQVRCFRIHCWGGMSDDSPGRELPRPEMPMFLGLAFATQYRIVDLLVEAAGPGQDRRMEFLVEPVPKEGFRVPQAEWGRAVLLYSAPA
UniProt P57772: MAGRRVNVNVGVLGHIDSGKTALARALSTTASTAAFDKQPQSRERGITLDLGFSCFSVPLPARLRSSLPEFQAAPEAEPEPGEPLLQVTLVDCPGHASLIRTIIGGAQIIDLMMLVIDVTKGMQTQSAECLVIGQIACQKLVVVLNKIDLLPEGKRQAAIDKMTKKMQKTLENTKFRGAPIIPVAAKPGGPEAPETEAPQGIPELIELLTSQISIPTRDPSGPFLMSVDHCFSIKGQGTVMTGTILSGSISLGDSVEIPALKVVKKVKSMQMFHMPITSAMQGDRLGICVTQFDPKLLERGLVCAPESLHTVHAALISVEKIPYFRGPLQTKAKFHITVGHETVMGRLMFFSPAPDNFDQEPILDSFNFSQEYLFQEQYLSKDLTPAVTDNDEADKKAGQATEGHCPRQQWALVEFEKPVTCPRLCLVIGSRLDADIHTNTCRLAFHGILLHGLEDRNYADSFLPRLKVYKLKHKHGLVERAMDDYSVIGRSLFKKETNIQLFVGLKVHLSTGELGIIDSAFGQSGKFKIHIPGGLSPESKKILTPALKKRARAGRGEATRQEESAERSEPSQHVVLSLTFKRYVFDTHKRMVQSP
UniProt O00303, whole entry, looked up: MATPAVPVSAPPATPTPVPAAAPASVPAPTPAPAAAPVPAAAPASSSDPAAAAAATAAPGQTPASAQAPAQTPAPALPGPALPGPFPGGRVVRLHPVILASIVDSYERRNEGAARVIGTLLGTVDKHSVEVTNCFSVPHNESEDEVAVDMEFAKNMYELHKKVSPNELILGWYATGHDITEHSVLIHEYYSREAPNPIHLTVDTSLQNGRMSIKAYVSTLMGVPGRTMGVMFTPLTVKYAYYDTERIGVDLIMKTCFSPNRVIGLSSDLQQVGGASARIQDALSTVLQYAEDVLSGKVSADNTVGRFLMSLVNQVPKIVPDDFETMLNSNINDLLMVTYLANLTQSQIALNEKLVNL
UniProt Q14152, whole entry, looked up: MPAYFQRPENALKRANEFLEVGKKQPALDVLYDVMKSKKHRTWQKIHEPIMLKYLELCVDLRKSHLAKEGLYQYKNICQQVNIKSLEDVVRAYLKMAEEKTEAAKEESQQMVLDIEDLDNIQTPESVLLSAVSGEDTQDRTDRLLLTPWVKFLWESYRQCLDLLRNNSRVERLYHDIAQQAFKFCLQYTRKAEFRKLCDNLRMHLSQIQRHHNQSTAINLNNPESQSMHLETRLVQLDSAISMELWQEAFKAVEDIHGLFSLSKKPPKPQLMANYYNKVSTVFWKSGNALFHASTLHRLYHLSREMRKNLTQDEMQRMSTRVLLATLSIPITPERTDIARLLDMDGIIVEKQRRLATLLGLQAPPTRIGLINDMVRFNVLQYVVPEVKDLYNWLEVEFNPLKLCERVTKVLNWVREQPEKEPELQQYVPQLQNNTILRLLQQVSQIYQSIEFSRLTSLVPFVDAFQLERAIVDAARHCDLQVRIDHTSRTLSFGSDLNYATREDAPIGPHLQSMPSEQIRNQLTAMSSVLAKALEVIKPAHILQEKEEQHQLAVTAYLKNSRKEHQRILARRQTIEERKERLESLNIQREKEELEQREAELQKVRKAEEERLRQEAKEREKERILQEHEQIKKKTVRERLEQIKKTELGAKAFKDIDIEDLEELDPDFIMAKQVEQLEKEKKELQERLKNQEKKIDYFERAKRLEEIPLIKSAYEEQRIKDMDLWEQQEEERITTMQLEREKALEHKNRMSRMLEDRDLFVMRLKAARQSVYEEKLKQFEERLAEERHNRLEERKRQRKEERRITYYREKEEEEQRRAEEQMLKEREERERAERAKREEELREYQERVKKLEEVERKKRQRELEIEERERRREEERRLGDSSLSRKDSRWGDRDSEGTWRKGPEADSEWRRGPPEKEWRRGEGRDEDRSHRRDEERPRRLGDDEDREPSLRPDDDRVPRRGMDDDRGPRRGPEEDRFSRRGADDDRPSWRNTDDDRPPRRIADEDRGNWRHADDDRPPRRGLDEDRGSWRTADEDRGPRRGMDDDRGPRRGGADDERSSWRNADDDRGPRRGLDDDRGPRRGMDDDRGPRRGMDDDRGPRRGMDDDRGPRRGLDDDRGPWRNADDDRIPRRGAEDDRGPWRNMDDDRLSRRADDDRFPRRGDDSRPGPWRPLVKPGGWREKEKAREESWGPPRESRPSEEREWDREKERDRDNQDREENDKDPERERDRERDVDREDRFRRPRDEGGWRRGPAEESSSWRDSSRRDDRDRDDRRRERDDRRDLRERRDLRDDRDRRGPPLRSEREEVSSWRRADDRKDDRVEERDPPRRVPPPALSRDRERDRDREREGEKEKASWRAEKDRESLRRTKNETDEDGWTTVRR
UniProt Q9BQ52: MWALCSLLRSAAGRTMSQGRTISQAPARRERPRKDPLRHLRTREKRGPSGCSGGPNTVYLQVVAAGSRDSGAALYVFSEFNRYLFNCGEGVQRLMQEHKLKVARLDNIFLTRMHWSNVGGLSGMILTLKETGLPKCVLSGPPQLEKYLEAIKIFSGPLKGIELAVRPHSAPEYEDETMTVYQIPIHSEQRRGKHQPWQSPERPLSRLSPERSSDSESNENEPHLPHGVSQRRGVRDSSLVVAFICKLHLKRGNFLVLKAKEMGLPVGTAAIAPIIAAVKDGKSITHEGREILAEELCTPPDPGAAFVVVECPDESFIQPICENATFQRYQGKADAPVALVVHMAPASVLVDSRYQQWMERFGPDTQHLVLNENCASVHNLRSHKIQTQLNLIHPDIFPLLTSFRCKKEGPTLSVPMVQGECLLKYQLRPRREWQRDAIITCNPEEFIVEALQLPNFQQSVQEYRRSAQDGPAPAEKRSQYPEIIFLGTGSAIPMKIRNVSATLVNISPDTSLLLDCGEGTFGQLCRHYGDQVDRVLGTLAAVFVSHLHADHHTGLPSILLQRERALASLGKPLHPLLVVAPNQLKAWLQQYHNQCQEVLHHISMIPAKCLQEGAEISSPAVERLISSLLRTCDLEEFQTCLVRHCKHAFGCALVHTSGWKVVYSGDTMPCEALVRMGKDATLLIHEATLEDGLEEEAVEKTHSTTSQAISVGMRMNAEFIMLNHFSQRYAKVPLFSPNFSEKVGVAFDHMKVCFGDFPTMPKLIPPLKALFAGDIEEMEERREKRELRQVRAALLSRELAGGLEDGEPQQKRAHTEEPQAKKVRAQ
UniProt Q96C19: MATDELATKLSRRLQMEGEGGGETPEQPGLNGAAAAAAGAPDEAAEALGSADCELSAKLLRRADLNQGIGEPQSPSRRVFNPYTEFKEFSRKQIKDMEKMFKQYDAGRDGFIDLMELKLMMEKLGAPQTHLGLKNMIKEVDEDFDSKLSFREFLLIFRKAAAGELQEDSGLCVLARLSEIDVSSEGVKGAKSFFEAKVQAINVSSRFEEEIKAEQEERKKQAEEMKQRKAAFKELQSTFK
UniProt O15372, whole entry, looked up: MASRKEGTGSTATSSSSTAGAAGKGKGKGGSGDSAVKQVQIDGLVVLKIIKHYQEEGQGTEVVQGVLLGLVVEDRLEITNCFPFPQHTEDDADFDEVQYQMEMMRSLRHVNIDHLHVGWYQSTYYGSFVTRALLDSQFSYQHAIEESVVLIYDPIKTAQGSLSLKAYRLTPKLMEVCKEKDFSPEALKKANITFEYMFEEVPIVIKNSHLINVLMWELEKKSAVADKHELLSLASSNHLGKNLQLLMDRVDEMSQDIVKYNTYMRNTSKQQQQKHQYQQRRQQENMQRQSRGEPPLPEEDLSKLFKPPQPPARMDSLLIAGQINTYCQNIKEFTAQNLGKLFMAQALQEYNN
UniProt Q8N9N8: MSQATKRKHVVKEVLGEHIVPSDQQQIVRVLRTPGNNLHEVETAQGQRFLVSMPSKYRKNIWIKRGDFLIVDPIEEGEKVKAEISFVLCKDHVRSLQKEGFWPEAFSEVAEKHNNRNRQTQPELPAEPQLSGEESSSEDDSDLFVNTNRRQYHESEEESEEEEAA
UniProt Q96KQ7: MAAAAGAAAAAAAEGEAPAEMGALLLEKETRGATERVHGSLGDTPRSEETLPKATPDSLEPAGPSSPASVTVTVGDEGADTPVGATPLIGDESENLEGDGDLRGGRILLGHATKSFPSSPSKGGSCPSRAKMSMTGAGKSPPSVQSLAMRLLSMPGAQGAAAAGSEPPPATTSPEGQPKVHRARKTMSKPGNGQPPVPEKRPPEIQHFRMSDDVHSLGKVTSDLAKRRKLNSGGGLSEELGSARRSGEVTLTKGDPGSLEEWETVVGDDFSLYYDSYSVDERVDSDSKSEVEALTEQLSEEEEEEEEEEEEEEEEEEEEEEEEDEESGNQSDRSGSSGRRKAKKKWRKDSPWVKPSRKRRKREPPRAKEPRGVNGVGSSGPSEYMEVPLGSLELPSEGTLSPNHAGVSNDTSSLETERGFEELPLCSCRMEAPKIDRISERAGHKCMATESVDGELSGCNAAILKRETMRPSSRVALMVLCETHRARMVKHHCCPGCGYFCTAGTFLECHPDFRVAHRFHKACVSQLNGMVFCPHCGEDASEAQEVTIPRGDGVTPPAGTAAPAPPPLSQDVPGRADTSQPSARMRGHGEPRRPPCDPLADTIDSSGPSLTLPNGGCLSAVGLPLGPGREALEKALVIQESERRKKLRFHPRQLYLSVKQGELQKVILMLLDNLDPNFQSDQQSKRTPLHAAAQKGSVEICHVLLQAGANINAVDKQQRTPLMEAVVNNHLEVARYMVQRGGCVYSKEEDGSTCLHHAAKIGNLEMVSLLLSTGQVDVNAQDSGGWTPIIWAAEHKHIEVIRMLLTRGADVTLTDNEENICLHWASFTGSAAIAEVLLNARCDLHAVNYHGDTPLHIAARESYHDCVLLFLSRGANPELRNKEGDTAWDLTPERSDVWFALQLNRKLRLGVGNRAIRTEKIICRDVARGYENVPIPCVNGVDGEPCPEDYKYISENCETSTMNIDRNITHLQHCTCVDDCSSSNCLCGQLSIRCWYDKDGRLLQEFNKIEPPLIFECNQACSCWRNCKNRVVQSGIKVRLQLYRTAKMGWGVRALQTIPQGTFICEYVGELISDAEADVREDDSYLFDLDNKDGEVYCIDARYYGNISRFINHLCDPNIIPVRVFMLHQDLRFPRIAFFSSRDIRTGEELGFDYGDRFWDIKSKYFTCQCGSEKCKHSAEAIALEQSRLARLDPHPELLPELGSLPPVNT
UniProt Q5J8M3, whole entry, looked up: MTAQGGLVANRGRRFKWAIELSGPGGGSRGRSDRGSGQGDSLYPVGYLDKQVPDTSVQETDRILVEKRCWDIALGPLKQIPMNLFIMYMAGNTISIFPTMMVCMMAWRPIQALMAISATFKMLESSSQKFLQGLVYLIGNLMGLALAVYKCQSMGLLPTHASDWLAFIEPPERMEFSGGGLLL
UniProt P55010, whole entry, looked up: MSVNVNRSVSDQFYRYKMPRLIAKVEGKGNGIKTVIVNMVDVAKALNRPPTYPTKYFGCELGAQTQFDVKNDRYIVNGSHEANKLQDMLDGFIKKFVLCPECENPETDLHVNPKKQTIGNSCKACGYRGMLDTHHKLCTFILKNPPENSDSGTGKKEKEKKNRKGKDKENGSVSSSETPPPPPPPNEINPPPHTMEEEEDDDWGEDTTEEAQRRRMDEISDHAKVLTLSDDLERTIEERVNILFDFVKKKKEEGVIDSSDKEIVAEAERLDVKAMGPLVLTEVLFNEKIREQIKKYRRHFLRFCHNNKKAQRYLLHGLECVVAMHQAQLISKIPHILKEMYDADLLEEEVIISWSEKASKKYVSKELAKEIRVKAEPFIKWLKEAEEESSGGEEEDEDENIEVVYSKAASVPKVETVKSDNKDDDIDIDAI

log2 fold change, inactive:
ENGASE (UniProt Q8NFI3) 0.025, EEFSEC (UniProt P57772) 0.156, EEF2 (UniProt P13639) -0.062, EIF3F (UniProt O00303) 0.05, EIF3A (UniProt Q14152) 0.11, ELAC2 (UniProt Q9BQ52) -0.02, EFHD2 (UniProt Q96C19) 0.021, EIF3H (UniProt O15372) 0.036, ELOB (UniProt Q15370) -0.128, EIF1AD (UniProt Q8N9N8) -0.019

Compound: C[C@H](Nc1ncnc2nc[nH]c12)c1cc2cccc(Cl)c2c(=O)n1-c1ccccc1 [duvelisib]
Assay: as above
Outline: as §1

log2 fold change, inactive:
EIF2D (UniProt P41214) -0.035, EMC2 (UniProt Q15006) 0.018, EHMT2 (UniProt Q96KQ7) 0.086, ENDOG (UniProt Q14249) -0.029, EIF4G2 (UniProt P78344) -0.11, EIF2B1 (UniProt Q14232) 0, EEF1A2 (UniProt Q05639) 0.067, ENOPH1 (UniProt Q9UHY7) 0.132, EIF4ENIF1 isoform 3 (UniProt Q9NRA8) 0.038, ENO2 (UniProt P09104) 0.033, EIF4EBP2 (UniProt Q13542) 0.181, EFTUD2 (UniProt Q15029) -0.011, EIF5B (UniProt O60841) -0.023, EHD4 (UniProt Q9H223) 0.029, EIPR1 (UniProt Q53HC9) -0.016, EI24 (UniProt O14681) 0.053, EIF3C (UniProt Q99613) -0.062, EIF3E (UniProt P60228) -0.06, EIF3L (UniProt Q9Y262) 0.052, EMC4 (UniProt Q5J8M3) 0.137, EIF4EBP1 (UniProt Q13541) 0.065, ELP5 isoform 4 (UniProt Q8TE02) 0.02, EIF5 (UniProt P55010) 0.038, ENGASE (UniProt Q8NFI3) 0.042, EEFSEC (UniProt P57772) -0.042, EEF2 (UniProt P13639) 0.003, EIF3F (UniProt O00303) 0.03, EIF3A (UniProt Q14152) -0.03, ELAC2 (UniProt Q9BQ52) 0.018, EFHD2 (UniProt Q96C19) -0.011, EIF3H (UniProt O15372) -0.035, ELOB (UniProt Q15370) 0.085, EIF1AD (UniProt Q8N9N8) 0.067

Compound: Cc1cc(Nc2cc(CN3CCOCC3)c3nc(C)c(Cc4ccc(Cl)cc4F)n3n2)n[nH]1 [gandotinib]
Assay: as above
Outline: as §1

log2 fold change, inactive:
EIF2D (UniProt P41214) -0.076, EMC2 (UniProt Q15006) -0.054, EHMT2 (UniProt Q96KQ7) 0.052, ENDOG (UniProt Q14249) -0.095, EIF4G2 (UniProt P78344) -0.011, EIF2B1 (UniProt Q14232) 0.029, EEF1A2 (UniProt Q05639) -0.019, ENOPH1 (UniProt Q9UHY7) 0.004, EIF4ENIF1 isoform 3 (UniProt Q9NRA8) 0.03, ENO2 (UniProt P09104) -0.007, EIF4EBP2 (UniProt Q13542) 0.069, EFTUD2 (UniProt Q15029) -0.028, EIF5B (UniProt O60841) -0.003, EHD4 (UniProt Q9H223) -0.062, EIPR1 (UniProt Q53HC9) 0.036, EI24 (UniProt O14681) -0.015, EIF3C (UniProt Q99613) -0.01, EIF3E (UniProt P60228) 0.087, EIF3L (UniProt Q9Y262) -0.044, EMC4 (UniProt Q5J8M3) 0.034, EIF4EBP1 (UniProt Q13541) 0.044, ELP5 isoform 4 (UniProt Q8TE02) 0.01, EIF5 (UniProt P55010) -0.018, ENGASE (UniProt Q8NFI3) -0.046, EEFSEC (UniProt P57772) 0.081, EEF2 (UniProt P13639) -0.005, EIF3F (UniProt O00303) -0.028, EIF3A (UniProt Q14152) 0.012, ELAC2 (UniProt Q9BQ52) 0.018, EFHD2 (UniProt Q96C19) -0.019, EIF3H (UniProt O15372) 0.006, ELOB (UniProt Q15370) 0.027, EIF1AD (UniProt Q8N9N8) 0.042

From the supplement of paper PMC10849652
